No constants are given. Whether binding was seen depends on the method and setting. Binding seen in cells or lysates may run through a third protein. Some results given as binding are weak or reduced against the parent protein; the word gives no strength.
What was measured:
V5-tagged TPC2 (human) [1] = target: V5-tagged TPC2 (human) (UniProt Q8NHX9); experiment: proximity ligation; in situ PLA (Duolink) with anti-V5 and anti-FLAG antibodies on fixed, permeabilized HEK293 cells co-expressing V5-tagged TPC2 and FLAG-tagged Lsm12; no signal if only one construct was expressed
[2] = target: TPC2 (exogenous, in TPC2-expressing HEK293 cells) (human) (UniProt Q8NHX9); experiment: co-IP; co-immunoprecipitation of co-expressed TPC2 and Lsm12 WT or truncation mutants (Fig. 4e); WT also in the absence or presence of 100 µM NAADP (Fig. 4f)
V5-tagged TPC2 (human) [3] = target: V5-tagged TPC2 (human) (UniProt Q8NHX9); experiment: co-IP; co-immunoprecipitation of V5-tagged TPC2 and Lsm12 WT or Δ45–50 transiently expressed in HEK293 Lsm12-KO cells (Fig. 7e)
[4] = target: endogenous Lsm12 (human (endogenous in HEK293)) (UniProt Q3MHD2); experiment: pull-down; immobilized NAADP (agarose beads), the ligand of Lsm12, on lysates of TPC1- or TPC2-expressing HEK293 WT and Lsm12-KO cells; immunoblot of TPC1 and TPC2
TPC2-FLAG (human) = TPC2-FLAG (human) (UniProt Q8NHX9); experiment: co-IP; anti-FLAG immunoprecipitation from HEK293 cells expressing FLAG-tagged TPC1 or TPC2; immunoblot of endogenous Lsm12

Chains of the proteins cited; added tags and fusions are not shown. Lines headed by an entry give the natural chain unless they say otherwise; changes in a name come on top. A line that says so, or that is headed by a name, gives the form on record, which may keep a tag or linker.
UniProt Q8NHX9: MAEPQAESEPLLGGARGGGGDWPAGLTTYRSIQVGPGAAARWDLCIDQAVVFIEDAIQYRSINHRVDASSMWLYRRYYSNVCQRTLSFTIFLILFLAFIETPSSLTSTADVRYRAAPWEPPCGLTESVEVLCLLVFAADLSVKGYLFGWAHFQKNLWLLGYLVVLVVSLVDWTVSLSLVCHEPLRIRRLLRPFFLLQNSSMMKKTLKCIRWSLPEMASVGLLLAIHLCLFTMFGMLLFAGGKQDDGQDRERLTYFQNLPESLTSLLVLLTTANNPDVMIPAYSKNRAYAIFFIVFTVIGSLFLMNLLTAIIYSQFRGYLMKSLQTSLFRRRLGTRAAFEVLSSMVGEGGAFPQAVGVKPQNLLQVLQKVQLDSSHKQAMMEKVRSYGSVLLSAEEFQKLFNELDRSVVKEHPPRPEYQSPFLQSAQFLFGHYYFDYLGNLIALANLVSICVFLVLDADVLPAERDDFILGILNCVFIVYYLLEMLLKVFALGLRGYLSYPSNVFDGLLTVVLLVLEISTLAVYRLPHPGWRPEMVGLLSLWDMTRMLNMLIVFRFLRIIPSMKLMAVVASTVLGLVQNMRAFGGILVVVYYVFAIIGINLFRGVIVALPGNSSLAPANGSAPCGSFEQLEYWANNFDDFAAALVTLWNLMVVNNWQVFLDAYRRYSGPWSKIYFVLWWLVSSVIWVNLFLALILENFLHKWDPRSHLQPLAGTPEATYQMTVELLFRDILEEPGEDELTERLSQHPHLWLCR
UniProt Q3MHD2: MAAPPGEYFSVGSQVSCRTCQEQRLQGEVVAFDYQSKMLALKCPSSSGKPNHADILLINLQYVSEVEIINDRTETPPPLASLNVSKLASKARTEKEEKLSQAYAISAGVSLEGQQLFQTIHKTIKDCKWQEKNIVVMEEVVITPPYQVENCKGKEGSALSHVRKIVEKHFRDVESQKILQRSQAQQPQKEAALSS
Lsm12^Δ45–50 mutant (Q3MHD2, form named): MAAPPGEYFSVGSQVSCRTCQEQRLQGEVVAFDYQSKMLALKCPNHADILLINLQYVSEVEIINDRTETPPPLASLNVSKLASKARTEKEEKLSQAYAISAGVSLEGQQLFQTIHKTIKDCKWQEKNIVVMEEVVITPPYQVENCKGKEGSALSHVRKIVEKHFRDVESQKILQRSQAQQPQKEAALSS

How did the binding (V5-tagged TPC2 (human) [1]) turn out when “FLAG-tagged Lsm12 (WT) (from UniProt Q3MHD2 1-195)” was run?
The binding was “binds”.

What about the binding [2] of the same substance?
The binding was “binds”.

“Lsm12^Δ45–50 mutant (from UniProt Q3MHD2 1-195)” was tested. Which binding (V5-tagged TPC2 (human) [3]) did it give?
The binding was “binds weakly”.

For “TPC2 (exogenous, in TPC2-expressing HEK293 cells) (from UniProt Q8NHX9 1-752)”, which binding [4] is on record?
The binding was “binds”.

For “endogenous Lsm12 (from UniProt Q3MHD2 1-195)”, which binding (TPC2-FLAG (human)) is on record?
Its binding is “binds”.

Source: article PMC8346516, “Lsm12 is an NAADP receptor and a two-pore channel regulatory protein required for calcium mobilization from acidic organelles” (Nature Communications, 2021)
